At least one structure is not confirmed: it was looked up by name or label, or the drawing left a doubt.
Experiments:
[1] = tested on: high fat fed female NZO mice; experiment: Ovarian histology of macrolide-treated chronically high fat fed NZO mice; type: in vivo, mouse; settings: chronically high fat diet fed NZO mice
Procedure: Statistical differences between groups were measured by two-way analysis of variance (ANOVA) followed by Bonferroni post-hock t-test comparing effect of all tested macrolides on mean follicular structure counts/unit area at 95% confidence. Scale bars=200 μm for B, D, F, G, H, I, J and 50 μm for A, C, E. N=10 (HFD-NZO), 6 per treatment group. A, C and E are higher magnifications of B, D and F respectively. * denoting ovarian cyst(s).
(§1) For the comparative evaluation of other macrolide drugs to tacrolimus, mice starting at 7 weeks of age were maintained on the high fat diet for a total of 13 weeks of study period. Mice were entered into the experiments when determined to be glucose intolerant as described above. Methods of drug administration and other experimental methods were as described above.

[2] = tested on: NZO mice fed a high fat diet; experiment: Implantation rate and resorption, comparison of macrolides; type: in vivo, mouse; settings: vs vehicle
Procedure: as §1
Peri-implantation (E4.5) and post-implantation (E6.5) pregnant and/or pseudopregnant (E4.5bid and E6.5bid) mouse uteri were prepared after mating respectively with fertile and/or vasectomized males as previously described (Herington et al. Endocrinol 2009 150: 4404-4413). The morning of vaginal plug detection was considered as gestational day 0.5 (E0.5 or Gd.0.5). […] Serum samples were stored at −80° C. until they were analyzed for their steroid hormones and lipid contents by appropriate laboratory procedures such as radio-immunoassay (RIA) all of which were conducted at the Department of Clinical Chemistry (Kingston General Hospital, Kingston, Ontario, Canada). […] The numbers of corpora lutea and implantation sites (viable and resorbed) were counted, respectively, from E4.5 and E6.5 pregnant mouse ovaries and uteri. […]

[3] = tested on: NZO mice fed a high fat diet; experiment: Fasting serum glucose, fasting serum insulin and glucose tolerance, comparison of macrolides; type: in vivo, mouse
Procedure: (§2) Female mice were administered tacrolimus (0.1 mg/kg or 0.05 mg/kg, n=6/group), vehicle (n=10), pimecrolimus (0.1 mg/kg, n=6) or sirolimus (0.1 mg/kg, n=6) subcutaneously every other day for 3 weeks.
as §1
Glucose Tolerance Test (GTT): was performed according to standard protocol (Ayala et al 2010). Briefly, basal glucose levels were measured for conscious mice individually caged in 1000 cc plastic mouse caging using a one-touch ultra glucose strips and meter (Acqui-check Aviva, Roche, Montreal, Canada) and approximately 30 microliters of blood obtained via tail venipuncture prior to fasting for six hours in cages equipped with hardwood bedding. Fasting blood glucose was recorded at the end of the six hours fasting period. Mice were then tested for oral glucose tolerance (OGTT) or for insulin sensitivity (Si). For OGTT alert mice were then given 20% D-glucose (2 g/kg body weight) sterile syrup administered orally. For Si experiments mice were given 20% D-glucose (2 g/kg body weight) sterile syrup by intraperitoneal administration through a 1 ml D29 gage “½” insulin syringe (Fisher Scientific, Montreal, Canada). Then after, blood glucose was recorded at 15, 30, 45, 60, 90 and 120 minutes respectively. For Si experiments blood glucose was determined only at 15 minutes. Glucose tolerance graphs were generated by blotting mean±standard error of the mean (SEM) of the recorded glucose data per mouse per minute collection time. […]
Fasting immuno-reactive mouse insulin levels were quantitatively determined in citrated platelet-free plasma samples obtained from 6 hours-fasting mice using an Ultrasensitive mouse Insulin Eliza kit (#90080, Crystal chem., IL, USA) according to the manufacturer instructions. […] The amount of insulin (ng/ml) present in the test samples were then measured via interpolation using the standard curve generated by plotting absorbance (at A^0450-A^0635) versus the corresponding concentration of a wide range (0.1-12.8 ng/ml) of mouse insulin standards according to the provider's instructions. Graphic representation of differences in mean±sem of plasma insulin among different groups of mice were blotted using Prism5 (La Jolla, Calif., USA) software and statistically significant differences (at 95% confidence) were calculated for the different test groups of mice using one way ANOVA followed by Bonferroni modified student t-test comparing differences between individual experimental groups.

[4] = tested on: type 2 diabetes NZO mouse model; experiment: HOMA-IR, HOMA-B and insulin sensitivity index (Si); type: in vivo
Procedure: as §2
HOMA IR=fasting glucose (mmol/L)×fasting insulin ([…])/22.5 according to the method of Bonora E et al., 2000. Pancreatic β-Cell function (HOMA-B) was calculated according to the method of Tresaco B et al., 2005, HOMA-B=[20×[…]). Insulin sensitivity (Si) was determined according to the method of Matthews D et al., 1985. Si=[basal glucose]−[glucose 15 min]/15).

[5] = tested on: female NZO mice fed a continuous high fat diet; experiment: Weight loss, comparison of macrolides; type: in vivo, mouse; settings: tacrolimus 0.05 or 0.1 mg/kg, pimecrolimus 0.1 mg/kg, sirolimus 0.1 mg/kg s.c. every other day for three weeks; vs vehicle
Text: as §1

[6] = 0.1 mg/kg s.c. every other day for 3 weeks, vs vehicle

CO[C@H]1C[C@@H]2CC[C@@H](C)[C@@](O)(O2)C(=O)C(=O)N2CCCC[C@H]2C(=O)O[C@H]([C@H](C)C[C@@H]2CC[C@@H](O)[C@H](OC)C2)CC(=O)[C@H](C)/C=C(\C)[C@@H](O)[C@@H](OC)C(=O)[C@H](C)C[C@H](C)/C=C/C=C/C=C/1C [sirolimus]
follicular growth pattern in the ovaries [1]: restored follicular growth pattern
ovarian cyst formation ([1]; p<0.001): inhibited the development of ovarian cysts
ovarian follicular atresia ([1]; vs untreated HFD-NZO): significantly inhibited ovarian follicular atresia (p<0.01)
embryonic and fetal absorption rate ([2]; same treatments, p<0.05): significantly reduced embryonic and fetal absorption rate
implantation rate ([2]; tacrolimus 0.05 and 0.1 mg/kg, pimecrolimus 0.1 mg/kg, sirolimus 0.1 mg/kg s.c. every other day for three weeks): significantly improved implantation rate (p<0.05)
fasting basal serum glucose [3, 6]: maintained low fasting basal serum glucose and insulin levels
fasting basal serum insulin [3, 6]: maintained low fasting basal serum glucose and insulin levels
glucose intolerance ([3]; 0.1 mg/kg, FIG. 17C, p=0.0001): significantly reduced glucose intolerance although to a lesser degree than tacrolimus
insulin secretion in response to a hyperglycemic challenge ([3]; tacrolimus 0.1 or 0.05 mg/kg, pimecrolimus 0.1 mg/kg, sirolimus 0.1 mg/kg s.c. every other day for 3 weeks, vs vehicle): significantly improved insulin secretion
insulin resistance (HOMA-IR) ([4]; p<0.001 vs vehicle): significantly reduced insulin resistance
insulin sensitivity (Si) ([4]; p<0.01 vs vehicle): enhanced insulin sensitivity
pancreatic β-cell function (HOMA-B) ([4]; p<0.05 vs vehicle): enhanced pancreatic β-cell function
weight loss [5]: induced statistically significant weight loss

Reference: US9427433B2, “Methods and compositions for enhancing fertility and/or inhibiting pregnancy failure and restoring glucose tolerance” (Queen's University at Kingston, priority 2011, dated 2016)
